Results: PubChem BioAssay AID2685 (National Center for Advancing Translational Sciences (NCATS), 2010)
The list shows a part of the results. Shown are side measurements of this screen, not its main read-out; they come without a call. Most of these compounds were active or inconclusive in the main read-out, so they are no random draw. The note in brackets gives the kind of curve behind each potency; many fits are weak.

Test: qHTS Assay for Lipid Storage Modulators in Drosophila S3 Cells;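 for cell number change: cells counted by Cell Tracker Red CMTPX staining in the red channel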
Conditions: BODIPY lipid droplet fluorescence, 18-24 h; for cell number change: measured here: cell count max response, cells fed with added oleic acid
In short: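 Laser-scanning cytometry quantifies lipid droplet accumulation (500–530 nm total intensity; droplet/cell object ratio) in oleic acid-fed (400 uM added) Drosophila S3 cells treated with a concentration series. 20 uM Triacsin C defined 100% inhibition.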

[1] = measured here: cell number channel AC50, cells fed with added oleic acid
[2] = measured here: lipid fluorescence (Fed channel) AC50, cells fed with added oleic acid

| SMILES | cell number change | AC50 [1] | AC50 [2] |
| --- | --- | --- | --- |
| Cc1cc(OCC(=O)N(C(C)C)C(C)C)cc(C)c1Br | -18.1% | 0.517 µM [rising, single point] | 29.1 µM [rising, single point] |
| Cc1cccc(N2CCN(C(=O)CCn3c(=S)[nH]c4cc5c(cc4c3=O)OCO5)CC2C)c1 (stereo unspecified) | 99.6% | 14.6 µM [rising, partial curve] | 0.58 µM [falling, single point] |
| CSc1nc2nccc(/C=C\c3ccccc3)n2n1 | -78.9% | 18.4 µM [falling, single point] | 18.4 µM [falling, single point] |
| O=C(CCCCl)NC(=S)Nc1cc(C(F)(F)F)ccc1N1CCOCC1 |  | 3.66 µM [falling, single point] |  |
| S=C(NC12CC3CC(CC(C3)C1)C2)N1CCCC1 |  | 0.092 µM [rising, full curve, poor fit] |  |
| CC(C)(C)OC(=O)[C@H](Cc1ccccc1)NC(=O)c1nc[nH]c1C(=O)NCCCCCN | 15% |  | 20.6 µM [rising, partial curve, poor fit] |
| Cc1c(NC(=O)CSc2nnnn2Cc2ccccc2)c(=O)n(-c2ccccc2)n1C | 30.6% | 5.17 µM [rising, partial curve, poor fit] |  |
| Cc1ccccc1OCCn1cc(C(=O)C(=O)N2CCOCC2)c2ccccc21 | 17.8% |  |  |
| C=CCSC1=N/C(=C\c2sccc2C)C(=O)S1 | 28.8% |  | 29.1 µM [rising, single point] |
| CN(C)/C=C(\C#N)C(=O)c1cccc(Oc2ccc(Br)cc2)c1 | -26.1% |  | 20.6 µM [falling, single point] |
| C#CCSc1ncc(-c2ccccc2)cn1 | 65.8% | 18.4 µM [rising, single point] | 18.4 µM [rising, single point] |
| O=C(COc1ccc(F)cc1)Nc1ccc(-n2cnnn2)cc1 | 35% | 2.06 µM [rising, partial curve, poor fit] | 2.06 µM [rising, single point] |
| C=CCn1c(COc2ccc(CC)cc2)nnc1SCC(=O)NC1CCS(=O)(=O)C1 (stereo unspecified) | -18.2% | 1.3 µM [falling, full curve] | 3.66 µM [falling, full curve] |
| COc1ccc(NS(=O)(=O)c2ccc(S(=O)(=O)N3CCOCC3)cc2)cc1 | 75% | 16.4 µM [rising, single point] |  |
| CSc1ccc(Cl)c(C(=O)Nc2ccc(C)cn2)c1 | 26.7% |  | 6.51 µM [falling, single point] |
| Cc1nccnc1Sc1ccccc1 | 15.8% |  | 13 µM [falling, single point] |
| COc1nccnc1NS(=O)(=O)c1ccc(NC(=S)NC(=O)/C=C/c2ccccc2)cc1 | -3.53% | 6.51 µM [rising, single point] |  |
| CCCOc1ccc(C(=O)N2CCCC2C(=O)O)cc1 (stereo unspecified) | -12.3% |  | 0.116 µM [falling, full curve, poor fit] |
| Cc1csc(NC(=O)c2ccc[nH]c2=O)n1 | 13.8% |  | 29.1 µM [rising, single point] |
| CCCCOc1ccc(C(=O)N/C(=C/C=C/c2ccccc2)C(=O)O)cc1 | 72% | 29.1 µM [rising, single point] |  |

2 entries from above in a different format.
SMILES	cell number change	AC50 [1]	AC50 [2]
CN(C)/C=C(\C#N)C(=O)c1cccc(Oc2ccc(Br)cc2)c1	-26.1%		20.6 µM [falling, single point]
C#CCSc1ncc(-c2ccccc2)cn1	65.8%	18.4 µM [rising, single point]	18.4 µM [rising, single point]

(further entries)

| SMILES | cell number change | AC50 [1] | AC50 [2] |
| --- | --- | --- | --- |
| COc1ccc(NC(=O)NN2CCN(C)CC2)cc1OC | 16.2% |  | 6.51 µM [rising, single point] |
| O=C(/C=C/c1ccc(Cl)cc1)Nc1ccc(N2CCOCC2)cc1 | 11.9% | 6.51 µM [falling, single point] |  |
| CCC1Oc2ccc(C)cc2N(CC(=O)N(Cc2ccc3c(c2)OCO3)CC2CCCO2)C1=O (stereo unspecified) | -1.26% |  | 3.26 µM [rising, partial curve] |
| O=C(CCc1ccccc1)NNC(=O)Nc1ccccc1 | 20.1% |  |  |
| CC(=O)N1CCN(CC(=O)Nc2cc(F)ccc2C)CC1 | 4.99% |  | 0.00517 µM [rising, full curve, poor fit] |
| COc1cc(/C=C(\C#N)C(=O)Nc2ccc3ccccc3c2)c([N+](=O)[O-])cc1OC |  |  | 3.66 µM [rising, single point] |
| O=C(NC1=NCCS1)c1ccccc1OCc1ccc(F)cc1 | 6.65% |  |  |
| C=CCn1cccc(/C=C/C(=O)c2ccc(C(C)(C)C)cc2)c1=S | -62.2% | 29.1 µM [falling, single point] | 29.1 µM [falling, single point] |
| CC(=O)NCCNS(=O)(=O)c1ccc(C)c([N+](=O)[O-])c1 | 30.8% | 32.6 µM [rising, single point] | 29.1 µM [rising, single point] |
| Cc1cc(C)n(C(=O)Cn2nc(C)c(Br)c2C)n1 | -14% |  | 5.8 µM [falling, single point] |
| COc1ccc(CNC(=O)C2CCN(S(=O)(=O)c3cccc4nsnc34)CC2)cc1 | 28.1% |  | 29.1 µM [rising, single point] |
| O=C(NNC(=O)c1ccc(NC(=O)c2ccccc2)cc1)c1ccc(F)cc1 | 30.8% |  |  |
| COc1ccc(-c2cc(C(=O)NN)[nH]n2)cc1 |  | 6.51 µM [rising, partial curve, poor fit] | 2.59 µM [rising, single point] |
| CC(=O)Nc1cccc(NC(=O)CSc2ccc(-c3ccco3)nn2)c1 | -10.4% |  |  |
| S=C(NCCc1ccccn1)NC1CC2CCC1C2 (stereo unspecified) | -0.121% |  |  |
| COc1ccc(C2CC(=O)C(C=NCCN3CCNCC3)=C(O)C2)cc1OC (stereo unspecified) | -3.51% |  | 0.184 µM [falling, full curve, poor fit] |
| O=C1C(C2=NC(C(=O)O)C3C(=O)N(c4ccccc4)C(=O)C23)=C(O)c2ccccc21 (stereo unspecified) | -27.3% |  |  |
| Cc1cccc(NC(=O)c2nc[nH]c2C(=O)N2CCN(C(=O)OC(C)(C)C)CC2)c1 | -21.2% |  | 0.517 µM [rising, partial curve] |
| Cn1ncc(Br)c1C(=O)N1CCCCCC1 | -8.38% |  | 3.26 µM [falling, single point] |
